According to US20200239593A1 (AIMM THERAPEUTICS B V, published 2020):
These are yes or no findings as the source states them, for the method shown. Some binding calls cover weakened binding; strength is not graded here.

By UniProt entry, the sequences of proteins in these tests, tags left out.
UniProt O75643: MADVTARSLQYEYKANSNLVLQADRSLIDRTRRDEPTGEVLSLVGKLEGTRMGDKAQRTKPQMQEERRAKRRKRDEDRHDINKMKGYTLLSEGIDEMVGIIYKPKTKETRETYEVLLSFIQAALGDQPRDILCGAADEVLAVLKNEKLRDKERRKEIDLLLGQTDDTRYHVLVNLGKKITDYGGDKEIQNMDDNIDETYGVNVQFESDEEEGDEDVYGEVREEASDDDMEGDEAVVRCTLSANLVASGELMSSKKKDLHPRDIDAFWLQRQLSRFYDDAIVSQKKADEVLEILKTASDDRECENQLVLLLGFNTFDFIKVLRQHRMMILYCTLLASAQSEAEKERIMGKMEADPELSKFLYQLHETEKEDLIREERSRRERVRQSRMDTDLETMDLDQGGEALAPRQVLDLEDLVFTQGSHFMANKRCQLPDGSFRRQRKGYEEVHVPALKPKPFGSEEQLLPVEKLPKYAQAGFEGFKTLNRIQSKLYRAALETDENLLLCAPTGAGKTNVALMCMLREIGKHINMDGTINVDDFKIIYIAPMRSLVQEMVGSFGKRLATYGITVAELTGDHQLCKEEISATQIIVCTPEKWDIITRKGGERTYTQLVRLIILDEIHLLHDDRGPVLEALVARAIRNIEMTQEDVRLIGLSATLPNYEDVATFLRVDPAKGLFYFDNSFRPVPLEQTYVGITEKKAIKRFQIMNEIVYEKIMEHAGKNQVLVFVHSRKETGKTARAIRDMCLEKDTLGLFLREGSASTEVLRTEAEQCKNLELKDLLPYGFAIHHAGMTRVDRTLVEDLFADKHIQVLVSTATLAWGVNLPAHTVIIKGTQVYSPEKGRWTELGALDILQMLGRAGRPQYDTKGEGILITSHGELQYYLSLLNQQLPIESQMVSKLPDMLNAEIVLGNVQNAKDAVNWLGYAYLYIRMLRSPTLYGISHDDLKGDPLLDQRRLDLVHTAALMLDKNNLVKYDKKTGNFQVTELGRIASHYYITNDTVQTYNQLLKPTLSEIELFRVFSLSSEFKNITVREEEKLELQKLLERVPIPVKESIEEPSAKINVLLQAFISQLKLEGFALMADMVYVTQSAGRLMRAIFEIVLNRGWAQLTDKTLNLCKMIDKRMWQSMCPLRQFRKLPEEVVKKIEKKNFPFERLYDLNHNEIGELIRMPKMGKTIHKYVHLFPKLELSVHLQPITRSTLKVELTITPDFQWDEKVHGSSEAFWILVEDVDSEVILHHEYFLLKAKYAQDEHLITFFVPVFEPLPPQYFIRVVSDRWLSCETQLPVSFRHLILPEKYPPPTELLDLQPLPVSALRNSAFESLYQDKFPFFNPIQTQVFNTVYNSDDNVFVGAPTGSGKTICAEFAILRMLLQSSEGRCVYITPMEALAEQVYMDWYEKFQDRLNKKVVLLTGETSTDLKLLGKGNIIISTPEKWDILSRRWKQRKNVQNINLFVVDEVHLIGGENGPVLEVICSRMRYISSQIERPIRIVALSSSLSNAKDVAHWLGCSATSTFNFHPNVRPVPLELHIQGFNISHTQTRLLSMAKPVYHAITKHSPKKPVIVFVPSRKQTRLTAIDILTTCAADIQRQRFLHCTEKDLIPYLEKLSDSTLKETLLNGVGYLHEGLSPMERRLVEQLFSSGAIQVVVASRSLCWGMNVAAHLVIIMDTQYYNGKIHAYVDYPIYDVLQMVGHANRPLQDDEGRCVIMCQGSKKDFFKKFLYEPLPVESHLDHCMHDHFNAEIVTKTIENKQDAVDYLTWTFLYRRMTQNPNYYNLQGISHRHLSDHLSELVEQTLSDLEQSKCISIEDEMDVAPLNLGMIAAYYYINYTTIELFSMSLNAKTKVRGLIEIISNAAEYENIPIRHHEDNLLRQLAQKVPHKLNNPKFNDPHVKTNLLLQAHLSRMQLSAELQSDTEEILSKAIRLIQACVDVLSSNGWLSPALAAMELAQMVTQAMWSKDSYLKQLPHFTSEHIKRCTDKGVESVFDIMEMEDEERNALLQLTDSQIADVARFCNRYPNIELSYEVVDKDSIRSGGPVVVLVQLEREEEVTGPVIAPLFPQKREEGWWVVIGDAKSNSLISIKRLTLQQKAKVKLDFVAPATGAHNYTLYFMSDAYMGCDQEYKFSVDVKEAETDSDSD

Key:
[1] = biological target: T1, snRNP200-flag construct (UniProt O75643 1-2136, limits assumed); assay: capture ELISA with snRNP200-flag lysate
T1 construct: mature; Used as lysate at 3 ug/ml, not purified; also called full-length snRNP200 with an N-terminal FLAG tag; not shown: N-terminal FLAG tag

[2] = biological target: T1, snRNP200-flag construct; assay: capture ELISA: antibody coated, snRNP200-flag captured, anti-flag HRP detection

B1: AT13-037 (antibody, IgG3, V domains shown)
VH: QVQLVESGGGVVQPGRSLRLSCAASGFTFSTYGMHWVRQAPGKGLEWVAVIWYDGSNTYYADSVKGRFTISRDNSKNTLYLQIKSLRAEDTAVYYCARGRGYSAQGNRNRAYYFDYWGQGTLVTVSS
VL: EIVMTQSPATLSVSPGERVILSCRASQSVSSNLAWYQQKPGQPPRLLIYGAFTRVTGVPARFSGSGSGTEFTLTISSLQSEDFAVYYCQQYNDRPPYTFGQGTKLEIK
binding [1]: binds | binding [2]: binds

B2: AT12-023 (antibody, V domains shown)
VH: QVQLQQWGAGLLKPSETLSLTCAVYGGSFSGYYWSWIRQPPGKGLEWIGEINHSGSTNYNPSLKSRVTISVDTSKNQFSLKLSSVTAADTAVYYCARGRSTSPLDYYYYYMDVWAKGTTVTVSS
VL: SSELTQDPAVSVALGQTVRITCQGDFLRSYYASWYQQKPGQAPVLVIFGKNKRPSGIPDRFSGSSSGNTASLTITGAQAEDEADYYCNSRDRSGNHLVFGGGTKLTVL
notes: Human antibody from AML patient donor 59; also called antibody AT12-023
binding [1]: binds | binding [2]: binds
